Test results: patent US5120712A, “Insulinotropic hormone” (The General Hospital Corporation, priority 1990, dated 1992)
Part of at least one peptide drawing is inferred or uncertain, most often the ends.

Tests used:
rat pancreas = assay: Perfused rat pancreas, insulin levels by radioimmunoassay; format: in vivo
[1] = test system: insulin mRNA in RIN-38 rat insulinoma cells; assay: Insulin mRNA levels in RIN-38 insulinoma cells (Northern hybridization, densitometry); format: cell-based; conditions: RIN-38 cells, 10^-7 M peptide, six hours
RINS-38 insulinoma cells = assay: cAMP levels in RINS-38 insulinoma cells; format: cell-based, rat; conditions: for pMOLES OF cAMP PRODUCED: 10 minutes, 20 ul per well assayed
[2] = test system: actin mRNA in RIN-38 insulinoma cells; assay: Actin mRNA levels in RIN-38 insulinoma cells; format: cell-based, rat; conditions: RIN-38 cells, 10^-7 M peptide, six hours
[3] = test system: insulin gene in RIN-38 insulinoma cells; assay: Insulin gene transcription in RIN-38 cells (nuclear run on assay); format: cell-based, rat; conditions: 10^-7 M
[4] = test system: angiotensinogen mRNA in RIN-38 insulinoma cells; assay: Angiotensinogen mRNA levels in RIN-38 insulinoma cells; format: cell-based, rat; conditions: RIN-38 cells, 10^-7 M peptide, six hours
[5] = test system: actin gene in RIN-38 insulinoma cells; assay: Actin gene transcription in RIN-38 cells (nuclear run on assay); format: cell-based, rat; conditions: 10^-7 M
[6] = test system: prolactin mRNA in GH4 cells; assay: Prolactin mRNA levels in GH4 pituitary cells; format: cell-based; conditions: 10^-7 M, 24 hours
[7] = test system: rat islet glucagon-producing cell line; assay: Hormone mRNA in rat islet glucagon-producing cell line; format: cell-based; conditions: 10^-7 M, 24 hours
[8] = test system: ACTH mRNA in AtT-20 cells; assay: ACTH mRNA levels in AtT-20 pituitary cells; format: cell-based; conditions: 10^-7 M, 24 hours
[9] = test system: RIN-38 rat insulinoma cells; assay: Insulin in cell culture medium of RIN-38 cells by radioimmunoassay; format: cell-based; conditions: 10^-7 M peptide, six hours
[10] = 5×10^-7 M, 0 minutes (before peptide added)
[11] = 5×10^-11 M, 0 minutes (before peptide added)
[12] = 5×10^-12 M, 0 minutes (before peptide added)
[13] = perfused rat pancreas, 5×10^-8 M
[14] = perfused rat pancreas, 5×10^-10 M
[15] = perfused rat pancreas, 5×10^-11 M

CC[C@H](C)[C@H](NC(=O)[C@H](Cc1ccccc1)NC(=O)[C@H](CCC(=O)O)NC(=O)[C@H](CCCCN)NC(=O)[C@H](C)NC(=O)[C@H](C)NC(=O)[C@H](CCC(N)=O)NC(=O)CNC(=O)[C@H](CCC(=O)O)NC(=O)[C@H](CC(C)C)NC(=O)[C@H](Cc1ccc(O)cc1)NC(=O)[C@H](CO)NC(=O)[C@H](CO)NC(=O)[C@@H](NC(=O)[C@H](CC(=O)O)NC(=O)[C@H](CO)NC(=O)[C@@H](NC(=O)[C@H](Cc1ccccc1)NC(=O)[C@@H](NC(=O)CNC(=O)[C@H](CCC(=O)O)NC(=O)[C@H](C)NC(=O)[C@@H](N)Cc1c[nH]cn1)[C@@H](C)O)[C@@H](C)O)C(C)C)C(=O)N[C@@H](C)C(=O)N[C@@H](Cc1c[nH]c2ccccc12)C(=O)N[C@@H](CC(C)C)C(=O)N[C@H](C(=O)N[C@@H](CCCCN)C(=O)NCC(=O)N[C@@H](CCCNC(=N)N)C(=O)NCC(=O)O)C(C)C [GLP-1 (7-37)]
Insulin Produced (rat pancreas; [10]): 50 picograms/ml
Insulin Produced (rat pancreas; 5×10^-7 M, 1 minute): 6600 picograms/ml
Insulin Produced (rat pancreas; 5×10^-7 M, 2 minutes): 4700 picograms/ml
Insulin Produced (rat pancreas; 5×10^-7 M, 3 minutes): 1700 picograms/ml
Insulin Produced (rat pancreas; 5×10^-8 M, 1 minute): 20,700 picograms/ml
Insulin Produced (rat pancreas; 5×10^-8 M, 2 minutes): 10,500 picograms/ml
Insulin Produced (rat pancreas; 5×10^-8 M, 3 minutes): 4,000 picograms/ml
Insulin Produced (rat pancreas; 5×10^-10 M, 1 minute): 7400 picograms/ml
Insulin Produced (rat pancreas; 5×10^-10 M, 2 minutes): 1800 picograms/ml
Insulin Produced (rat pancreas; 5×10^-10 M, 3 minutes): 760 picograms/ml
Insulin Produced (rat pancreas; [11]): 160 picograms/ml
Insulin Produced (rat pancreas; 5×10^-11 M, 1 minute): 2400 picograms/ml
Insulin Produced (rat pancreas; 5×10^-11 M, 2 minutes): 1700 picograms/ml
Insulin Produced (rat pancreas; 5×10^-11 M, 3 minutes): 1900 picograms/ml
Insulin Produced (rat pancreas; [12]): 50 picograms/ml
Insulin Produced (rat pancreas; 5×10^-12 M, 1 minute): 50 picograms/ml
Insulin Produced (rat pancreas; 5×10^-12 M, 2 minutes): 50 picograms/ml
Insulin Produced (rat pancreas; 5×10^-12 M, 3 minutes): 98 picograms/ml
potency relative to GLP-1 (1-37) in stimulating insulin expression in vivo (rat pancreas; perfused rat pancreas): more than 1,000 fold
increase in serum insulin concentrations (rat pancreas; [13]): 21 fold
increase in serum insulin levels (rat pancreas; [14]): 32 fold
increase in insulin levels (rat pancreas; [15]): 15 fold
cellular level of INSULIN messenger RNA [1]: 4.23 ± 0.74 arbitrary densitometric units
insulin gene expression relative to level in control (untreated) cells ([1]; microdensitometer): more than 3 times
pMOLES OF cAMP PRODUCED (RINS-38 insulinoma cells; peptide 10^-6 M): 400 pMOLES
pMOLES OF cAMP PRODUCED (RINS-38 insulinoma cells; peptide 10^-7 M): 370 pMOLES
pMOLES OF cAMP PRODUCED (RINS-38 insulinoma cells; peptide 10^-8 M): 494 pMOLES
pMOLES OF cAMP PRODUCED (RINS-38 insulinoma cells; peptide 10^-9 M): 515 pMOLES
pMOLES OF cAMP PRODUCED (RINS-38 insulinoma cells; peptide 10^-10 M): 253 pMOLES
stimulation of cAMP levels (in words) (RINS-38 insulinoma cells; peptide 10^-11 M): capable of stimulating cAMP levels
pMOLES OF cAMP PRODUCED (RINS-38 insulinoma cells; peptide 10^-11 M): 533 pMOLES
cellular level of ACTIN messenger RNA [2]: 0.82 ± 0.08 arbitrary densitometric units
transcription of INSULIN GENE ([3]; 0 hrs): 17.4 ppm/kb of cDNA insert
transcription of INSULIN GENE ([3]; 1 hr): 76.2 ppm/kb of cDNA insert
transcription of INSULIN GENE ([3]; 4 hrs): 9.0 ppm/kb of cDNA insert
effect on rate of insulin gene transcription (in words) ([3]; up to 4 hours): increases the rate of insulin gene transcription
cellular level of ANGIOTENSINOGEN messenger RNA [4]: 2.78 ± 0.46 arbitrary densitometric units
transcription of ACTIN GENE ([5]; 0 hrs): 34.1 ppm/kb of cDNA insert
transcription of ACTIN GENE ([5]; 1 hr): 29.9 ppm/kb of cDNA insert
transcription of ACTIN GENE ([5]; 4 hrs): 25.0 ppm/kb of cDNA insert
effect on rate of actin gene expression (in words) ([5]; up to 4 hours): no detectable effect

CC[C@H](C)[C@H](NC(=O)[C@H](Cc1ccccc1)NC(=O)[C@H](CCC(=O)O)NC(=O)[C@H](CCCCN)NC(=O)[C@H](C)NC(=O)[C@H](C)NC(=O)[C@H](CCC(N)=O)NC(=O)CNC(=O)[C@H](CCC(=O)O)NC(=O)[C@H](CC(C)C)NC(=O)[C@H](Cc1ccc(O)cc1)NC(=O)[C@H](CO)NC(=O)[C@H](CO)NC(=O)[C@@H](NC(=O)[C@H](CC(=O)O)NC(=O)[C@H](CO)NC(=O)[C@@H](NC(=O)[C@H](Cc1ccccc1)NC(=O)[C@@H](NC(=O)CNC(=O)[C@H](CCC(=O)O)NC(=O)[C@H](C)NC(=O)[C@H](Cc1c[nH]cn1)NC(=O)[C@H](CCCNC(=N)N)NC(=O)[C@H](CCC(=O)O)NC(=O)[C@H](Cc1ccccc1)NC(=O)[C@H](CCC(=O)O)NC(=O)[C@H](CC(=O)O)NC(=O)[C@@H](N)Cc1c[nH]cn1)[C@@H](C)O)[C@@H](C)O)C(C)C)C(=O)N[C@@H](C)C(=O)N[C@@H](Cc1c[nH]c2ccccc12)C(=O)N[C@@H](CC(C)C)C(=O)N[C@H](C(=O)N[C@@H](CCCCN)C(=O)NCC(=O)N[C@@H](CCCNC(=N)N)C(=O)NCC(=O)O)C(C)C [GLP-1 (1-37), reference compound]
effect on amount of prolactin mRNA [6]: did not have any detectable effect
Insulin Produced (rat pancreas; [10]): 1400 picograms/ml
Insulin Produced (rat pancreas; 5×10^-7 M, 1 minute): 4700 picograms/ml
Insulin Produced (rat pancreas; 5×10^-7 M, 2 minutes): 2900 picograms/ml
Insulin Produced (rat pancreas; 5×10^-7 M, 3 minutes): 2200 picograms/ml
Insulin Produced (rat pancreas; 5×10^-8 M, 0 minutes (before peptide added)): 3,000 picograms/ml
Insulin Produced (rat pancreas; 5×10^-8 M, 1 minute): 6,000 picograms/ml
Insulin Produced (rat pancreas; 5×10^-8 M, 2 minutes): 2,000 picograms/ml
Insulin Produced (rat pancreas; 5×10^-8 M, 3 minutes): 2,000 picograms/ml
Insulin Produced (rat pancreas; 5×10^-10 M, 0 minutes (before peptide added)): 500 picograms/ml
Insulin Produced (rat pancreas; 5×10^-10 M, 1 minute): 600 picograms/ml
Insulin Produced (rat pancreas; 5×10^-10 M, 2 minutes): 640 picograms/ml
Insulin Produced (rat pancreas; 5×10^-10 M, 3 minutes): 430 picograms/ml
Insulin Produced (rat pancreas; [11]): 340 picograms/ml
Insulin Produced (rat pancreas; 5×10^-11 M, 1 minute): 180 picograms/ml
Insulin Produced (rat pancreas; 5×10^-11 M, 2 minutes): 230 picograms/ml
Insulin Produced (rat pancreas; 5×10^-11 M, 3 minutes): 340 picograms/ml
Insulin Produced (rat pancreas; [12]): 50 picograms/ml
Insulin Produced (rat pancreas; 5×10^-12 M, 1 minute): 50 picograms/ml
Insulin Produced (rat pancreas; 5×10^-12 M, 2 minutes): 160 picograms/ml
Insulin Produced (rat pancreas; 5×10^-12 M, 3 minutes): 50 picograms/ml
increase in serum insulin concentrations (rat pancreas; perfused rat pancreas, 5×10^-7 M): 3.4 fold
increase in serum insulin concentrations (rat pancreas; [13]): 2 fold
increase in serum insulin levels (rat pancreas; [14]): 20%
effect on insulin levels (rat pancreas; [15]): without effect
cellular level of INSULIN messenger RNA [1]: 1.87 ± 0.56 arbitrary densitometric units
pMOLES OF cAMP PRODUCED (RINS-38 insulinoma cells; peptide 10^-6 M): 170 pMOLES
pMOLES OF cAMP PRODUCED (RINS-38 insulinoma cells; peptide 10^-7 M): 120 pMOLES
pMOLES OF cAMP PRODUCED (RINS-38 insulinoma cells; peptide 10^-8 M): 160 pMOLES
pMOLES OF cAMP PRODUCED (RINS-38 insulinoma cells; peptide 10^-9 M): 100 pMOLES
pMOLES OF cAMP PRODUCED (RINS-38 insulinoma cells; peptide 10^-10 M): 90 pMOLES
pMOLES OF cAMP PRODUCED (RINS-38 insulinoma cells; peptide 10^-11 M): 90 pMOLES
effect on amount of hormone specific mRNA in glucagon-producing cell line [7]: did not have any detectable effect
effect on amount of ACTH mRNA [8]: did not have any detectable effect
Insulin Produced [9]: 5000 uUnits/ML
cellular level of ACTIN messenger RNA [2]: 0.91 ± 0.02 arbitrary densitometric units
cellular level of ANGIOTENSINOGEN messenger RNA [4]: 2.25 ± 0.20 arbitrary densitometric units

CC[C@H](C)[C@H](NC(=O)[C@H](Cc1ccccc1)NC(=O)[C@H](CCC(=O)O)NC(=O)[C@H](CCCCN)NC(=O)[C@H](C)NC(=O)[C@H](C)NC(=O)[C@H](CCC(N)=O)NC(=O)CNC(=O)[C@H](CCC(=O)O)NC(=O)[C@H](CC(C)C)NC(=O)[C@H](Cc1ccc(O)cc1)NC(=O)[C@H](CO)NC(=O)[C@H](CO)NC(=O)[C@@H](NC(=O)[C@H](CC(=O)O)NC(=O)[C@H](CO)NC(=O)[C@@H](NC(=O)[C@H](Cc1ccccc1)NC(=O)[C@@H](NC(=O)CNC(=O)[C@H](CCC(=O)O)NC(=O)[C@H](C)NC(=O)[C@H](Cc1c[nH]cn1)NC(=O)[C@H](CCCNC(=N)N)NC(=O)[C@H](CCC(=O)O)NC(=O)[C@H](Cc1ccccc1)NC(=O)[C@H](CCC(=O)O)NC(=O)[C@H](CC(=O)O)NC(=O)[C@@H](N)Cc1c[nH]cn1)[C@@H](C)O)[C@@H](C)O)C(C)C)C(=O)N[C@@H](C)C(=O)N[C@@H](Cc1c[nH]c2ccccc12)C(=O)N[C@@H](CC(C)C)C(=O)N[C@H](C(=O)N[C@@H](CCCCN)C(=O)NCC(=O)N[C@@H](CCCNC(=N)N)C(N)=O)C(C)C [GLP-I (1-36) des-Gly Arginine-amide]
cellular level of INSULIN messenger RNA [1]: 2.78 ± 0.80 arbitrary densitometric units
cellular level of ACTIN messenger RNA [2]: 0.88 ± 0.03 arbitrary densitometric units
cellular level of ANGIOTENSINOGEN messenger RNA [4]: 2.56 ± 0.22 arbitrary densitometric units
